In US7560610:
Results are given in words; binding and its absence hold for the method and conditions named. For part of these data: In cells and extracts the contact can be indirect. Some binding calls cover weakened binding; strength is not graded here.

Legend:
[1] = target: cyclin A (endogenous, Balb/c-3T3 fibroblasts) (UniProt P51943); assay: summary of co-immunoprecipitation and immunodepletion in Balb/c-3T3 cells after mitogen withdrawal
[2] = target: cyclin A (endogenous, Balb/c-3T3 fibroblasts) (UniProt P51943); assay: p27 immunoblot of cyclin A immunoprecipitates from Balb/c-3T3 cells treated with antisense or mismatch oligonucleotides
[3] = target: cyclin A (endogenous, Balb/c-3T3 fibroblasts) (UniProt P51943); assay: immunodepletion of Balb/c-3T3 extracts with p27 antiserum, then cyclin A and p27 immunoblots
[4] = target: cyclin E (endogenous, Balb/c-3T3 fibroblasts), Q61457; assay: p27 immunoblot of cyclin E immunoprecipitates from Balb/c-3T3 cells treated with antisense or mismatch oligonucleotides; details: remark: other sources report otherwise
[5] = target: cyclin E (endogenous, Balb/c-3T3 fibroblasts), Q61457; assay: immunodepletion of Balb/c-3T3 extracts with p27 antiserum, then cyclin E and p27 immunoblots; details: remark: other sources report otherwise
[6] = target: cyclin E (endogenous, Balb/c-3T3 fibroblasts), Q61457; assay: summary of co-immunoprecipitation and immunodepletion in Balb/c-3T3 cells after mitogen withdrawal; details: remark: other sources report otherwise

binding [1] | binding [2] | binding [3] | binding [4] | binding [5] | binding [6] | Molecule
binds | binds | binds | – | – | – | p27Kip1 protein (endogenous murine p27 of Balb/c-3T3 fibroblasts) (from UniProt P46414 1-197)
– | – | – | binds | binds | binds | p27Kip1 protein (endogenous murine p27 of Balb/c-3T3 fibroblasts), P46414 1-197 (protein, UniProt P46414 1-197, looked up) MSNVRVSNGSPSLERMDARQAEHPKPSACRNLFGPVNHEELTRDLEKHCRDMEEASQRKWNFDFQNHKPLEGRYEWQEVERGSLPEFYYRPPRPPKSACKVLAQESQDVSGSRQAVPLIGSQANSEDRHLVDQMPDSSDNPAGLAEQCPGMRKRPAAEDSSSQNKRANRTEENVSDGSPNAGTVEQTPKKPGLRRQT
